In PubChem BioAssay AID504444 (National Center for Advancing Translational Sciences (NCATS), 2011):
In all, about 360,000 compounds went through this assay and about 7,500 (2.1%) were called active. The shares of active, inactive and inconclusive entries below differ from those in the screen. Calls come from the whole dose curve; as a rule, active = well fitted inhibition curve with a large enough effect; inconclusive = small, poorly fitted or top-dose-only effect, or effect the other way; inactive = flat fitted curve, though single readings scatter. A potency beside an inconclusive call is a rough fit, not a confirmed value.
% is set by controls: 0 for no effect and ±100 for the full control effect; potency is the fitted concentration of half-maximal effect.

Test: Nrf2 qHTS screen for inhibitors; note: nearly all actives have a fitted effect of over 60% in size
Settings: A549 ARE-Fluc reporter, luciferase luminescence, 18-24 h; activity change, negative = inhibition: at 46 µM (top of the series)
How it was run: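 In this cell-based qHTS, ARE-driven firefly luciferase in A549 cells reports Nrf2 activity; the luminescent signal after BugLite lysis is the measured value, with a prior CellTiter-Fluor read for cell health.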
In the case of `Cc1cccn2cc(-c3ccc(S(=O)(=O)N4CCCCC4)cc3)nc12`, the “activity change, negative = inhibition” value is reported as inactive: -10.2%.
With `O=C(NCCc1ccccc1)c1nc(-c2cccs2)no1` the Potency was inconclusive: 14.6 µM [activator, partial curve].
In the case of `COC(=O)c1[nH]c2cccc(OC)c2c1NC(=O)CCN1CCSCC1`, the “activity change, negative = inhibition” value is reported as inactive: 4.32%.
With `O=C(NCCCN1CCN(c2ccc(F)cc2)CC1)C1CCCN(c2ncnc3c2nc2n3CCCCC2)C1` (stereo not given) the “activity change, negative = inhibition” value was inactive: 8.24%.
In the case of `COc1cc2ccccc2cc1C(=O)N(CCN(C)C)c1nc2ccc(Br)cc2s1`, the Potency is reported as inconclusive: 18.4 µM [falling, partial curve].
In the case of `C/C(=N\NS(=O)(=O)c1ccc(C)c([N+](=O)[O-])c1)c1cccs1`, the Potency is reported as inconclusive: 6.51 µM [activator, single point].
For `CC(C)(C)NS(=O)(=O)c1ccc2[nH]c3c(c2c1)CCCCC3`, the Potency was inconclusive: 29.1 µM [falling, single point].
In the case of `CC(=O)c1cnc(N2CCCCC2)nc1C`, the Potency is reported as inconclusive: 1.64 µM [activator, full curve, poor fit].
In the case of `CCN(CC)S(=O)(=O)c1ccc(C(=O)Oc2cc(C)[nH]c(=O)c2[N+](=O)[O-])cc1`, the Potency is reported as inconclusive: 4.11 µM [activator, partial curve, poor fit].
In the case of `COc1ccc(CCNc2oc(-c3ccc(OC)c(OC)c3)nc2C#N)cc1`, the Potency is reported as active: 23.1 µM.
In the case of `Cc1ccc2ncnc(NCCCN3CCOCC3)c2c1`, the Potency is reported as inconclusive: 7.31 µM [falling, partial curve, poor fit].
In the case of `COc1ccccc1N1CCN(C(=O)c2oc3ccccc3c2NC(=O)C(C)Oc2ccccc2)CC1` (stereo not given), the “activity change, negative = inhibition” value is reported as inactive: 5.84%.
With `Cc1ccc(C(C)C)c(OCCn2cc(C(=O)c3ccco3)c3ccccc32)c1` the Potency was inconclusive: 18.4 µM [falling, single point].
In the case of `Cc1cccn2c(=O)c(C(=O)NC3CCCCC3C)c(O)nc12` (stereo not given), the Potency is reported as inconclusive: 20.6 µM [falling, single point].
In the case of `Cc1ccc(-c2nc(-c3ccncc3)no2)cc1C`, the Potency is reported as inconclusive: 2.06 µM [activator, partial curve, poor fit].
In the case of `COc1ccc(CNC(=O)C2CCCN(S(=O)(=O)c3ccc4c(c3)CCCN4C(C)=O)C2)cc1` (stereo not given), the Potency is reported as active: 20.6 µM.
In the case of `CCc1nnc2c(NCc3ccc(F)cc3)nc3ccccc3n12`, the “activity change, negative = inhibition” value is reported as inactive: 17.5%.
For `C=C(C)c1cccc(C(C)(C)NC(=O)Nc2ccc(C(N)=O)cc2)c1`, the Potency was inconclusive: 20.6 µM [falling, single point].
With `COc1cccc(C(=O)N2c3ccccc3Sc3ccccc32)c1` the Potency was inconclusive: 29.1 µM [falling, single point].
With `CCOC(=O)c1ccc(-c2ccc(/C=N/NC(=O)Cc3nnc(N)s3)o2)cc1` the Potency was inconclusive: 9.2 µM [activator, partial curve].
For `CCOc1ccc2nc(N3CCCC(C(=O)Nc4ccc(Br)c(C)c4)C3)sc2c1` (stereo not given), the Potency was inconclusive: 4.11 µM [activator, partial curve, poor fit].
For `S=C(Nc1ccc2c(c1)OCO2)N1CCN(Cc2ccco2)CC1`, the Potency was inconclusive: 20.6 µM [falling, single point].
In the case of `COc1ccccc1C(C)NC(=O)c1cc(S(=O)(=O)N2CCCCC2)ccc1C` (stereo not given), the Potency is reported as inconclusive: 29.1 µM [falling, partial curve, poor fit].
With `COc1ccccc1Nc1nc(NCCCCO)nc(N2CCCC2)n1` the Potency was inconclusive: 20.6 µM [falling, single point].
In the case of `COc1ccc(C2c3c(n(C)c4ccccc34)C(=O)N2CC(=O)Nc2ccc(Cl)cc2)cc1` (stereo not given), the “activity change, negative = inhibition” value is reported as inactive: -16%.
In the case of `O=C(NCCOc1ccccc1)C1CCCCC1`, the Potency is reported as inconclusive: 29.1 µM [activator, single point].
For `Brc1cc(Br)c2nc(-c3cccs3)ccc2c1`, the Potency was inconclusive: 11.6 µM [activator, partial curve].
With `CC(=O)c1c(C)[nH]c(C(=O)OCc2ccc([N+](=O)[O-])cc2)c1C` the Potency was inconclusive: 23.1 µM [falling, partial curve, poor fit].
With `CCOC(=O)c1c(C)oc2ncnc(NCCc3ccccc3)c12` the Potency was inconclusive: 29.1 µM [falling, single point].
For `CC(C)Cn1c(N)c(C(=O)COC(=O)CC23CC4CC(CC(C4)C2)C3)c(=O)n(C)c1=O`, the Potency was active: 2.06 µM.
In the case of `COc1cc2nc(SCC(=O)Nc3ccc(F)cc3)n3nc(CCn4c(C)nc5ccccc54)nc3c2cc1OC`, the Potency is reported as inconclusive: 7.31 µM [activator, partial curve, poor fit].
With `O=C(CCC1CCCN(C(=O)c2cc3ccccc3o2)C1)NCc1ccc(F)c(F)c1` (stereo not given) the Potency was inconclusive: 9.2 µM [activator, partial curve, poor fit].
With `Cc1cccc(C)c1OCCNC(=O)C(=O)NCc1ccco1` the Potency was inconclusive: 20.6 µM [activator, partial curve].
In the case of `N#CC(Sc1ccccn1)c1ccc(Cl)cc1` (stereo not given), the Potency is reported as active: 13 µM.
For `CCOC(=O)C(C)Sc1nc(-c2cccs2)ccc1C#N` (stereo not given), the Potency was inconclusive: 13 µM [activator, partial curve].
With `Cc1nc2sc(-c3ccccc3)nn2c(=O)c1Br` the Potency was inconclusive: 0.731 µM [activator, full curve, poor fit].
For `CC1CC2=C(C(=O)O1)C(c1ccc(Cl)cc1)Nc1ccccc1N2` (stereo not given), the Potency was inconclusive: 20.6 µM [falling, partial curve].
For `Cc1ccc(OCCC(=O)N(Cc2ccccc2)c2c(N)n(Cc3ccccc3)c(=O)[nH]c2=O)cc1`, the Potency was inconclusive: 20.6 µM [falling, single point].
In the case of `COc1ccc(Cl)cc1NS(=O)(=O)c1cccc2cccnc12`, the Potency is reported as inconclusive: 29.1 µM [falling, partial curve, poor fit].
In the case of `CC1(C)c2[nH]c3ccccc3c2C[C@H]2C(=O)N(Cc3cccc(F)c3)C(=O)N21`, the Potency is reported as inconclusive: 20.6 µM [falling, partial curve].
In the case of `C=CCN(c1ccccc1OC)S(=O)(=O)c1cccc(C(=O)Nc2nnc(C3CC3)s2)c1`, the “activity change, negative = inhibition” value is reported as inactive: -11.2%.
With `CCOc1ccc2nc(SCC(=O)NC3CC3)sc2c1` the Potency was inconclusive: 32.6 µM [falling, single point].
For `CC(=O)N1CCc2cc(S(=O)(=O)C(C)CC(=O)Nc3ccc(OC(F)(F)F)cc3)ccc21` (stereo not given), the Potency was active: 11.6 µM.
With `COc1cc2c(=O)n(Cc3ccccc3)c(=O)n(CC(=O)Nc3cc(C(F)(F)F)ccc3Cl)c2cc1OC` the Potency was inconclusive: 3.26 µM [activator, partial curve, poor fit].
With `O=C(C1CCC1)N1CCc2cc(S(=O)(=O)NCc3cccnc3)ccc21` the Potency was inconclusive: 5.17 µM [falling, partial curve].
For `Cc1ccccc1C(=O)N1CCc2ccccc2C1`, the Potency was inconclusive: 0.366 µM [falling, partial curve, poor fit].
With `Cc1ccnc(NC(=O)c2cccc(S(=O)(=O)Nc3ccc(C)cc3C)c2)c1` the Potency was inconclusive: 29.1 µM [falling, single point].
With `S=c1[nH]nc(-c2cc3ccccc3o2)n1Cc1ccccc1` the Potency was inconclusive: 29.1 µM [falling, single point].
In the case of `COCCNC(=O)c1noc2c1CCc1cc(OC)ccc1-2`, the Potency is reported as inconclusive: 4.11 µM [activator, single point].
For `O=C(Cn1cccc1C(=O)c1ccccc1)NCc1ccc(F)cc1`, the Potency was inconclusive: 16.4 µM [activator, partial curve].
With `Cc1ccc(/C=N/N(C)S(=O)(=O)c2ccc(C)cc2)cc1` the Potency was active: 25.9 µM.
With `Cc1cc(/C=C(\C#N)C(=O)NC2CC2)c(C)[nH]1` the Potency was inconclusive: 0.58 µM [activator, full curve, poor fit].
In the case of `CC(=O)Nc1ccc(NC(=O)CSC2=NS(=O)(=O)c3ccccc3N2)cc1`, the Potency is reported as inconclusive: 29.1 µM [activator, single point].
For `CCOC(=O)C1(Cc2ccccc2C)CCCN(C(=O)c2sccc2C)C1` (stereo not given), the Potency was inconclusive: 9.2 µM [activator, partial curve].
With `COC1C(OC(=O)/C=C/C=C/C=C/C=C/C(=O)O)CCC2(CO2)C1C1(C)OC1CC=C(C)C` (stereo not given) (tested in a mixture with another compound) the Potency was inconclusive: 0.0231 µM [falling, full curve, poor fit].
In the case of `CC(C)(C)C(=O)CSc1ncnc2c1cnn2Cc1ccccc1`, the Potency is reported as inconclusive: 18.4 µM [falling, single point].
With `COc1ccc(Cl)cc1NC(=O)CN(C)CC(=O)Nc1ccc(C)cc1Br` the Potency was inconclusive: 29.1 µM [falling, single point].
For `N/C(=N\OC(=O)CCC1CCCC1)c1ccc(Cl)cc1`, the Potency was inconclusive: 16.4 µM [activator, single point].
With `CCOc1cc(C(=O)O/N=C(\N)c2ccccn2)cc(OCC)c1OCC` the Potency was inconclusive: 16.4 µM [falling, partial curve, poor fit].
In the case of `S=C(NC1CC1)N1CCc2ccccc2C1`, the “activity change, negative = inhibition” value is reported as inactive: -2.1%.
In the case of `CC(=O)c1ccc(-n2c(CCC(=O)O)ccc2-c2ccc(Cl)cc2)cc1`, the Potency is reported as inconclusive: 16.4 µM [falling, partial curve, poor fit].
For `CCCn1c(Nc2nc3ccccc3n2C)nc2ccccc21`, the Potency was inconclusive: 29.1 µM [falling, single point].
In the case of `FC(F)(F)c1ccccc1/C=N/N1CCN(Cc2ccccc2)CC1`, the Potency is reported as inconclusive: 13 µM [activator, partial curve, poor fit].
For `CCOC(=O)c1ccc(CSc2nnc3cc(C)c4ccccc4n23)cc1`, the “activity change, negative = inhibition” value was inactive: 15%.
In the case of `COc1ccccc1NC(=O)CN(c1ccc(C(C)C)cc1)S(=O)(=O)c1c(C)noc1C`, the Potency is reported as inconclusive: 32.6 µM [falling, single point].
